Data as given in patent US20150208656A1, “Substituted thiadiazoles and their use as fungicides” (priority 2012, published 2015).
Some results were stated once for a whole list of compounds, not compound by compound.

Assays:
Phakopsora pachyrhizi = assay: Greenhouse test: protective control of soy bean rust on soy beans caused by Phakopsora pachyrhizi; type: in vivo; conditions: 1000 ppm, sprayed to run-off on soy bean seedlings, inoculated after 1 day; untreated plants 90% infected
Botrytis cinerea = assay: Activity against the grey mold Botrytis cinerea in the microtiterplate test; type: cell-based; conditions: 125 ppm active substance; relative growth vs active compound-free control (100%); 405 nm, 7 days after inoculation

| SMILES | infection (% diseased leaf area) (Phakopsora pachyrhizi) | growth of the pathogen (Botrytis cinerea) |
| --- | --- | --- |
| Cn1c(=O)c2sc3nsnc3sc=2c1=O [I-1, 6-Methyl-5H-Pyrrolo (3′,4′:5,6)(1,4)dithiino-(2,3-C)-(1,2,5)thiadiazole-5,7(6H)-dione] | less than or equal to 10% | at most 3% |
| COn1c(=O)c2sc3nsnc3sc=2c1=O [I-3, 6-Methoxy-5H-Pyrrolo (3′,4′:5,6)(1,4)dithiino-(2,3-C)-(1,2,5)thiadiazole-5,7(6H)-dione] | less than or equal to 10% | at most 3% |
